Experimental data published in paper PMC3457981, “The Role, Interaction and Regulation of the Velvet Regulator VelB in Aspergillus nidulans”.
Negatives hold for the conditions tested. For some of these results: At least one verdict was read from the data and is not stated in words by the source. For some of these results: Tags and fusion partners may be left off the protein sequences shown. For some of these results: For at least one entry, the source does not settle the construct or the ends of the probe.

What was measured:
[1] = biological target: T1, GST-AbaA (Aspergillus nidulans) (UniProt P20945); assay: competition with a labelled probe; conditions: unlabeled, 5-25 fold excess vs labeled WT probe, 6% glycerol, 12 mM HEPES-KOH pH 7.6, 4 mM Tris-HCl pH 8.0, 1 mM EDTA, 0.5 mM DTT, 0-12 ug poly(dI-dC), ~10 ng probe in 24 ul, RT, 20 min, 6% PAGE, TBE, recombinant protein, residues 1-588, protein details: N-terminal GST (pGEX-5X-1)
T1 sequence (looked up): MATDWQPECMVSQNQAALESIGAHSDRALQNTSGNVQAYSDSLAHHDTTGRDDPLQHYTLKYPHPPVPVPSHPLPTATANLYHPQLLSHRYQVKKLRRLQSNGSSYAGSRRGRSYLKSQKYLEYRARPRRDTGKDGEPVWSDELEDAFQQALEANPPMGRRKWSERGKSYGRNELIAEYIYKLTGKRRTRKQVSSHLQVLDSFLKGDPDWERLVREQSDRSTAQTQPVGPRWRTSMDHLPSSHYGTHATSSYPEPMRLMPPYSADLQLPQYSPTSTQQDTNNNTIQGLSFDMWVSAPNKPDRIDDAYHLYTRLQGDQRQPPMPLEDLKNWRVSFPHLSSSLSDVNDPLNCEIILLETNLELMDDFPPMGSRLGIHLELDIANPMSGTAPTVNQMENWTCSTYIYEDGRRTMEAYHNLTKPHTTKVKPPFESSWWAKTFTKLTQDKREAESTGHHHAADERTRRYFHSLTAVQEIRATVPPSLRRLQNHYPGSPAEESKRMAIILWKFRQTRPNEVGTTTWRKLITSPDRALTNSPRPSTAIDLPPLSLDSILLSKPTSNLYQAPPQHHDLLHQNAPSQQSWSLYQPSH

GST = assay: EMSA; conditions: tag-only control; 6% glycerol, 12 mM HEPES-KOH pH 7.6, 4 mM Tris-HCl pH 8.0, 1 mM EDTA, 0.5 mM DTT, 0-12 ug poly(dI-dC), ~10 ng probe in 24 ul; RT, 20 min; 6% PAGE, TBE; recombinant protein; protein details: GST only; label: 32P (5' end, T4 PNK)
[2] = biological target: T1, GST-AbaA (Aspergillus nidulans); assay: EMSA; conditions: direct probe; 6% glycerol, 12 mM HEPES-KOH pH 7.6, 4 mM Tris-HCl pH 8.0, 1 mM EDTA, 0.5 mM DTT, 0-12 ug poly(dI-dC), ~10 ng probe in 24 ul; RT, 20 min; 6% PAGE, TBE; recombinant protein; residues 1-588; protein details: N-terminal GST (pGEX-5X-1); label: 32P as probe, unlabeled as competitor
[3] = label: 32P as probe, unlabeled as competitor

Sequence	binding result ([1]; label: 32P (5' end, T4 PNK))	binding result (GST)	binding result [1, 3]	binding result [2]
CAGCTCCATTCCGCACGGTCATTCC (double strand) [velB EMSA probe 1]	binds	no binding	–	–
CAGCTCCAAACCGCACGGTCATTCC (double strand) [velB EMSA probe M1]	–	–	no binding	no binding
GTGGTTCCTTACCTCATTCCCGACCTTTTTTGCC (double strand) [vosA EMSA probe 3]	binds	–	–	–
AGCTCCAGCTCCAAACCGCACGGTCAAACCGTTCTCGGCG (double strand) [velB EMSA probe M2]	–	–	no binding	no binding
AGCTCCAGCTCCATTCCGCACGGTCATTCCGTTCTCGGCG (double strand) [velB EMSA probe 2]	binds	–	–	–
GTGGTTCCTTACCTCAAACCCGACCTTTTTTGCC (double strand) [vosA EMSA probe M3]	–	–	no binding	no binding
